The results in this text go back to article PMC3976305.

By UniProt entry, the sequences of proteins in these tests, tags left out. Residues count along the entry.
UniProt Q14114, residues 33-963: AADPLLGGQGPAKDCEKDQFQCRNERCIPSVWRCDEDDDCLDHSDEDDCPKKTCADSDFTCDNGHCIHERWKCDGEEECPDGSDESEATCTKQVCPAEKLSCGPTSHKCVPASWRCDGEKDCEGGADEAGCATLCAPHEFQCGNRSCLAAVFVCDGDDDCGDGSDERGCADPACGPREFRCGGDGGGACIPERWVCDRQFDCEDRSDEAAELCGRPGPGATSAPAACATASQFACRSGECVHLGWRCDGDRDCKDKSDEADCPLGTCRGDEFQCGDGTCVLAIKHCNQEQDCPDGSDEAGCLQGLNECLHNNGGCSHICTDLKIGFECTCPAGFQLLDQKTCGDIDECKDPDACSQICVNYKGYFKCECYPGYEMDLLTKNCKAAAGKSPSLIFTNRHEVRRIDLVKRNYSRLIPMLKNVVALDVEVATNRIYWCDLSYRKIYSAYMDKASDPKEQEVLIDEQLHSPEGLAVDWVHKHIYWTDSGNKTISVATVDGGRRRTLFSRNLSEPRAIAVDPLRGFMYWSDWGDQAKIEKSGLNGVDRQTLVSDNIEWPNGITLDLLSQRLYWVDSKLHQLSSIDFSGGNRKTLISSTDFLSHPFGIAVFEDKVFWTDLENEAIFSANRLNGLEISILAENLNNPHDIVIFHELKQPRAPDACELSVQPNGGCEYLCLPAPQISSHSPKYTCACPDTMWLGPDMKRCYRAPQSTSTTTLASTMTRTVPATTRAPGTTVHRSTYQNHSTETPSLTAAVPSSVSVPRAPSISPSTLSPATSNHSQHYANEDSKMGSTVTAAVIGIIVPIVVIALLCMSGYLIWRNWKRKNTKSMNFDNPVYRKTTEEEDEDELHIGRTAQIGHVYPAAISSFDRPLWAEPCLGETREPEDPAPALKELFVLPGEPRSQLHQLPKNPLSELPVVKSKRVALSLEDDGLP

The target of test [1] is T1, myc-SNX17 (full-length mouse SNX17 with a 9xmyc epitope) (mouse) (UniProt Q8BVL3).
T1 sequence: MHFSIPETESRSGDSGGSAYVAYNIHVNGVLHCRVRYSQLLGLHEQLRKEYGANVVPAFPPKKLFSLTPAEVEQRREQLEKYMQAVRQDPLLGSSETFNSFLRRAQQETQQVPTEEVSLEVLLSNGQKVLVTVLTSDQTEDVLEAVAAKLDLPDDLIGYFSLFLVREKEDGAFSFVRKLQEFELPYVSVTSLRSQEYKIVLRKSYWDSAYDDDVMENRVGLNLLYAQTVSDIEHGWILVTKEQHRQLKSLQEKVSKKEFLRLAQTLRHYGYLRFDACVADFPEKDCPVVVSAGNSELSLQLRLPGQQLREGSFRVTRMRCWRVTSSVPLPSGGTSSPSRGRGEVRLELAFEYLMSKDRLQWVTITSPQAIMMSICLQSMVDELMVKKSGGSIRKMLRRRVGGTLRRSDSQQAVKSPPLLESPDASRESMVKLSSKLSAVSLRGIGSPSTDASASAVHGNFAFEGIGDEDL
The experiment in a line: co-IP; extracts of HEK293 cells transiently transfected with myc-SNX17 and HA-ApoER2 (wild type or NPxA); immunoprecipitated with anti-myc, blotted with anti-HA.

Test [2] concerns the target T2, GST-SNX17 (full-length SNX17 fused to GST) (UniProt Q8BVL3).
T2 sequence: T1 sequence
Put plainly: pull-down; GST-SNX17 (full length) on glutathione agarose beads incubated with lysates of HEK 293 cells transfected with HA-ApoER2 wild-type or NPxY/A; HUNT buffer, 3 h at 4°C; anti-HA western blot; only the target purified. On the technique in general: In western blotting, separated proteins are transferred to a membrane and probed.

No constants are given. Whether binding was seen depends on the method and setting. In cells and extracts the contact can be indirect. Some entries that bind do so weakly or less than the wild type. Tags and fused reporters may be left off the sequences shown.

For the substance “HA-ApoER2 wild-type (from UniProt Q14114 33-963) (receptor)”, the binding entry in test [1] and in test [2] was “binds” each time.
